Source: PubChem BioAssay AID330 (DTP/NCI, 2004)
The list does not hold the whole screen: it is rich in T/C values a quarter to a half above the control, in often repeated tests (any T/C) and in doses without a T/C. Further doses and runs are listed elsewhere. T/C: endpoint of the treated group in % of that of the vehicle group. Some entries give survivors of the animals treated and no T/C: the source holds a T/C of zero for them, seemingly a mark for toxic or unscored doses. Some survivor counts are full or nearly so, which does not show that the dose was tolerated: survival well below the control is almost never listed, so the zero probably covers shortened survival too. Counts of survivors are from the toxicity check (mostly the fifth day) where no day follows; animals may have died later. Schedules are NCI's codes, taken here to give the interval after Q, in days (D) or hours (H), and the number of doses after X. Some entries were tested several times; their values stand side by side, smallest first. Where survival is the endpoint, the PubChem record calls one and a half times the control and up active, and a quarter to a half above the control has no call in these data; cut-offs in other NCI protocols can differ. Some T/C values carry the count of animals alive at the toxicity check (mostly the fifth day); where none is given, no animal had died by that day.

Test system: P388 leukemia ip, CD2F1 mice, survival T/C
Assay: NCI In Vivo Anticancer Drug Screen. Data for tumor model P388 Leukemia (intraperitoneal) in CD2F1 (CDF1) mice
Conditions: T/C endpoint: median survival time, higher T/C = longer survival
[1] = dose: 100.0 mg/kg/injection, schedule: Q01DX009 (ip), vehicle: saline with Tween-80
[2] = dose: 200.0 mg/kg/injection, schedule: Q04DX003 (ip), vehicle: saline with Tween-80
[3] = dose: 400.0 mg/kg/injection, schedule: Q04DX003 (ip), vehicle: saline with Tween-80
[4] = dose: 200.0 mg/kg/injection, schedule: Q01DX005 (ip), vehicle: saline with Tween-80
[5] = dose: 200.0 mg/kg/injection, schedule: Q01DX009 (ip), vehicle: Klucel (hydroxypropylcellulose) (HPC)
[6] = dose: 200.0 mg/kg/injection, schedule: Q04DX002 (ip), vehicle: Klucel (hydroxypropylcellulose) (HPC)
[7] = dose: 100.0 mg/kg/injection, schedule: Q01DX009 (ip), vehicle: saline
[8] = dose: 200.0 mg/kg/injection, schedule: Q01DX009 (ip), vehicle: saline
[9] = dose: 200.0 mg/kg/injection, schedule: Q01DX009 (ip), vehicle: saline with Tween-80
[10] = dose: 50.0 mg/kg/injection, schedule: Q01DX009 (ip), vehicle: saline
[11] = dose: 240.0 mg/kg/injection, schedule: Q01DX005 (ip), vehicle: saline with Tween-80
[12] = dose: 100.0 mg/kg/injection, schedule: Q04DX003 (ip), vehicle: saline with Tween-80
[13] = dose: 200.0 mg/kg/injection, schedule: Q01DX009 (ip), vehicle: gum acacia

CCC1CN2CCc3cc(OC)c(OC)cc3C2CC1CC1c2cc(OC)c(OC)cc2CCN1C(=O)C(Cc1c[nH]c2ccccc12)NC(=O)OC(C)(C)C (stereo unspecified)
T/C [1]: 130 % of control
survivor count [1]: 6 of 6
survivor count (dose: 150.0 mg/kg/injection, schedule: Q01DX009 (ip), vehicle: saline with Tween-80): 5 of 6
survivor count [2]: 6 of 6
survivor count [3]: 0 of 6

NC(N)=NCCSCc1ccc2ccccc2n1
survivor count (dose: 200.0 mg/kg/injection, schedule: Q01DX005 (ip), vehicle: saline): 0 of 5

COC(=O)C(Cc1ccccc1)NC(=O)C(CC(C)C)NC(=O)C(CC(C)C)NC(=O)C(N)CC(C)C (stereo unspecified)
survivor count [4]: 3 of 6

COC1CC(C)(O)Cc2cc3c(c(O)c21)C(=O)c1c(O)cc2c(c1C3=O)OC1OC2(C)C(O)C(N(C)C)C1O (stereo unspecified)
T/C (dose: 1.6 mg/kg/injection, schedule: Q01DX009 (ip), vehicle: other): 128 % of control
T/C (dose: 3.16 mg/kg/injection, schedule: Q01DX009 (ip), vehicle: other): 141 % of control

Cc1cccc(N2CCN(C(=O)/C(=C/c3ccccc3)NC(=O)c3ccccc3)CC2)c1
survivor count [4]: 5 of 6

CC1(C)COC(=O)/C1=C\C#N
survivor count (dose: 400.0 mg/kg/injection, schedule: Q04DX003 (ip), vehicle: Klucel (hydroxypropylcellulose) (HPC)): 2 of 5

Nc1nc(Sc2ccc([N+](=O)[O-])c3nonc23)c2ncn(C3OC(CO)C(O)C3O)c2n1 (stereo unspecified)
T/C (dose: 12.5 mg/kg/injection, schedule: Q01DX009 (ip), vehicle: Klucel (hydroxypropylcellulose) (HPC)): 131 and 145 % of control
T/C (dose: 25.0 mg/kg/injection, schedule: Q01DX009 (ip), vehicle: Klucel (hydroxypropylcellulose) (HPC)): 144 % of control
survivor count (dose: 100.0 mg/kg/injection, schedule: Q01DX009 (ip), vehicle: Klucel (hydroxypropylcellulose) (HPC)): 6 of 6
survivor count [5]: 6 of 6

CCOC(=O)C1=C(N)C2CC(C)=C(C)CN2C1 (stereo unspecified)
survivor count [4]: 0 of 5

Cn1c(=O)[nH]c(=O)c2nc(-c3ccccc3)cnc21
survivor count [6]: 6 of 6

CCNC(=S)N=Nc1c(O)[nH]c2ccccc12
survivor count [7]: 6 of 6
survivor count [8]: 6 of 6

C=Cn1c([N+](=O)[O-])cnc1/C=C/c1ccc(C(=O)O)cc1
survivor count [5]: 6 of 6

Cc1cc(N(c2ccc([N+](=O)[O-])cc2)S(C)(=O)=O)c(C)cc1C=O
survivor count [9]: 6 of 6

NC(=S)N/N=C\C(=O)c1ccccc1O
T/C (dose: 37.5 mg/kg/injection, schedule: Q01DX009 (ip), vehicle: saline with Tween-80): 87, 93 [5 of 6 alive], 110, 134 % of control
survivor count (dose: 75.0 mg/kg/injection, schedule: Q01DX009 (ip), vehicle: saline with Tween-80): 6 of 6

CS(=O)(=O)OCC1NC(=O)C(COS(C)(=O)=O)NC1=O (stereo unspecified)
survivor count (dose: 200.0 mg/kg/injection, schedule: Q01DX009 (ip), vehicle: other): 4 of 6
survivor count (dose: 400.0 mg/kg/injection, schedule: Q01DX009 (ip), vehicle: other): 0 of 6

S=C1N(c2ccc(Cl)cc2)C2=C(N=Nc3ccccc3)C(=Nc3ccccc3S2)N1c1ccccn1
survivor count [4]: 0 of 6

CCOC(=O)NCCF
survivor count (dose: 6.25 mg/kg/injection, schedule: Q01DX009 (ip), vehicle: saline): 1 of 6
survivor count (dose: 12.5 mg/kg/injection, schedule: Q01DX009 (ip), vehicle: saline): 0 of 6
survivor count (dose: 25.0 mg/kg/injection, schedule: Q01DX009 (ip), vehicle: saline): 0 of 6
survivor count [10]: 0 of 6
survivor count [7]: 0 of 6
survivor count [8]: 0 of 6

NC(=S)c1cc(Cl)cc(Cl)c1N
survivor count (dose: 60.0 mg/kg/injection, schedule: Q01DX005 (ip), vehicle: Klucel (hydroxypropylcellulose) (HPC)): 1 of 6
survivor count (dose: 120.0 mg/kg/injection, schedule: Q01DX005 (ip), vehicle: Klucel (hydroxypropylcellulose) (HPC)): 0 of 6
survivor count (dose: 240.0 mg/kg/injection, schedule: Q01DX005 (ip), vehicle: Klucel (hydroxypropylcellulose) (HPC)): 0 of 6

COC1=Nc2ccccc2S(=O)(=O)C=C1
survivor count (dose: 120.0 mg/kg/injection, schedule: Q01DX005 (ip), vehicle: saline with Tween-80): 3 of 6
survivor count [11]: 1 of 6

CC(C)C(=O)N1CCCCCCN1C(=O)C(C)C
survivor count (dose: 400.0 mg/kg/injection, schedule: Q01DX009 (ip), vehicle: Klucel (hydroxypropylcellulose) (HPC)): 0 of 6

CCCCNc1ccc2nnc(C)n2n1
survivor count (dose: 400.0 mg/kg/injection, schedule: Q01DX005 (ip), vehicle: DMSO): 0 of 6
survivor count (dose: 800.0 mg/kg/injection, schedule: Q01DX005 (ip), vehicle: DMSO): 0 of 6

CCCOC1NC(=O)Oc2ccccc21 (stereo unspecified)
T/C [11]: 147 % of control [5 of 6 alive]
survivor count (dose: 480.0 mg/kg/injection, schedule: Q01DX005 (ip), vehicle: saline with Tween-80): 2 of 6 and 3 of 6

COP(=S)(OC)SCSc1ccc(Cl)cc1
survivor count (dose: 50.0 mg/kg/injection, schedule: Q01DX009 (ip), vehicle: saline with Tween-80): 1 of 6
survivor count [1]: 0 of 6
survivor count [9]: 0 of 6

CN1CCN(c2c(C(=O)Nc3ccc([N+](=O)[O-])cc3)cc([N+](=O)[O-])cc2[N+](=O)[O-])CC1
survivor count [11]: 6 of 6

NCCc1nc(-c2nc(C(=O)Nc3ccccc3)cs2)cs1
survivor count (dose: 200.0 mg/kg/injection, schedule: Q01DX009 (ip), vehicle: distilled water + Tween-80): 0 of 6

Nc1ccc(N(CCCl)CCN(CCCl)c2ccc(N)cc2)cc1
survivor count (dose: 1.8 mg/kg/injection, schedule: Q01DX009 (ip), vehicle: saline sonified): 5 of 6
survivor count (dose: 10.0 mg/kg/injection, schedule: Q04DX003 (ip), vehicle: saline with Tween-80): 5 of 6
survivor count (dose: 20.0 mg/kg/injection, schedule: Q04DX003 (ip), vehicle: saline with Tween-80): 4 of 6

CCOc1ccc(Cc2nc3c([nH]2)c(=O)n(C)c(=O)n3C)cc1OCC
survivor count [12]: 6 of 6
survivor count [3]: 6 of 6

Nc1cccc2ccccc12
survivor count [2]: 0 of 6
survivor count [3]: 0 of 6

CC(=O)Oc1c(C)c(OC(C)=O)c2c(c1C(C)=O)OC1=CC(O)=C(C(C)=O)C(=O)C12C (stereo unspecified)
T/C [13]: 144 % of control [5 of 6 alive]
survivor count [13]: 3 of 6

CC1=CC2c3cccc4[nH]cc(c34)CC2N(C)C1 (stereo unspecified)
T/C (dose: 5.0 mg/kg/injection, schedule: Q01DX009 (ip), vehicle: saline): 141 % of control

CCOC(=O)Oc1ccc(CC([NH-])C(=O)O)cc1.CCOC(=O)Oc1ccc(CC([NH-])C(=O)O)cc1.[Cu+2] (stereo unspecified)
survivor count [10]: 5 of 6
survivor count [7]: 1 of 6
survivor count [8]: 1 of 6

Nc1cc([N+](=O)[O-])ccc1O
survivor count (dose: 400.0 mg/kg/injection, schedule: Q01DX009 (ip), vehicle: saline): 3 of 6
survivor count (dose: 600.0 mg/kg/injection, schedule: Q01DX009 (ip), vehicle: saline): 0 of 6

CCOC(=O)NC(C#N)=C(Cl)Cl
survivor count (dose: 50.0 mg/kg/injection, schedule: Q01DX009 (ip), vehicle: Klucel (hydroxypropylcellulose) (HPC)): 4 of 6

CCCCCCCC(C)c1cc(N)c(C)cc1[N+](=O)[O-] (stereo unspecified)
survivor count (dose: 100.0 mg/kg/injection, schedule: Q04DX002 (ip), vehicle: Klucel (hydroxypropylcellulose) (HPC)): 0 of 6
survivor count [6]: 0 of 6
survivor count (dose: 400.0 mg/kg/injection, schedule: Q04DX002 (ip), vehicle: Klucel (hydroxypropylcellulose) (HPC)): 0 of 6

CN1C(=O)n2c(nc3ccccc32)C(Cl)(Cl)C1=O
survivor count [11]: 0 of 6

CCC1C(=O)CC(C(=O)O)C1C(=O)O (stereo unspecified)
survivor count (dose: 120.0 mg/kg/injection, schedule: Q01DX005 (ip), vehicle: saline): 6 of 6

COC(/C=N/OC(C)=O)c1ccccc1 (stereo unspecified)
survivor count [12]: 5 of 6 and 6 of 6
survivor count [2]: 1 of 6 and 2 of 6
survivor count [3]: 0 of 6
